One substance from article PMC10282328 can be followed below.

Protein sequences, listed by entry. Tags and fused reporters are not part of them.
UniProt P29351: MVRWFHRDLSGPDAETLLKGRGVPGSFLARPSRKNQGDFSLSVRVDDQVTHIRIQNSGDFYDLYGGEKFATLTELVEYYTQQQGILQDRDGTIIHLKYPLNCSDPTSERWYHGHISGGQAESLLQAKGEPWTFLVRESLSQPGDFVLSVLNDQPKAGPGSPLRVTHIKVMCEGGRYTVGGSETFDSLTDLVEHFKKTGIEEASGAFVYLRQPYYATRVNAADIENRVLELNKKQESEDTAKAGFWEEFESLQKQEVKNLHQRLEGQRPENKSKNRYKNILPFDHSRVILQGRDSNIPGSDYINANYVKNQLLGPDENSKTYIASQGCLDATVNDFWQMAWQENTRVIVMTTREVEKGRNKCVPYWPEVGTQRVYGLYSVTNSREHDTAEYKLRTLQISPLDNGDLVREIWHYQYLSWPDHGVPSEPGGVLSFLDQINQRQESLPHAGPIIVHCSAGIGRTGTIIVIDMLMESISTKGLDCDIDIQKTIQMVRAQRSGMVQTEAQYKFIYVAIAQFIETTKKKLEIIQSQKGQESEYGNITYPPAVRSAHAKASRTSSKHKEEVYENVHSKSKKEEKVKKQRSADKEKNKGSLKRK

In assay [1] the target is T1, HA-tagged WT Clec12a (mouse) (mouse) (UniProt Q504P2).
T1 sequence: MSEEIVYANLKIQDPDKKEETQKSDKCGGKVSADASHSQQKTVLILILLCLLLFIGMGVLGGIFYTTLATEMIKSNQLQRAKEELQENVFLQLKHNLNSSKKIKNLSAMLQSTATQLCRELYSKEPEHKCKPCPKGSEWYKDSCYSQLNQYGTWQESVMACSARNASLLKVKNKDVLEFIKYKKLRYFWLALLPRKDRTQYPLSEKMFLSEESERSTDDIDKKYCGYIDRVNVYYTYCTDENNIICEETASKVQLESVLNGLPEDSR
The experiment in a line: co-IP; DC2.4 cell lysate (50 mM Hepes pH 7.4, 150 mM NaCl, 1% NP-40, 1 mM EDTA); anti-HA antibody on protein A/G agarose, 3 h at 4°C; washed four times with lysis buffer with 300 mM NaCl added; Western blot for SHP-1/2.

In assay [2] the target is T2, HA-tagged ITIM mutant Clec12a (Y7F) (mouse) (mouse) (UniProt Q504P2).
T2 sequence: T1 sequence with Y7F
The description is as above.

Positions count from the first letter of the chain named. Results are given in words; binding and its absence hold for the method and conditions named. Binding seen in cells or lysates may run through a third protein. Some results given as binding are weak or reduced against the parent protein; the word gives no strength. Where a sequence is shown, tags or fusion partners need not be part of it.

For the substance “SH2 domain-containing phosphatase 1 (SHP-1), mouse (from UniProt P29351 1-595) (enzyme)”, the binding entry in assay [1] is recorded as “binds”; in assay [2], “no binding”.
